Some results are limits rather than exact numbers.

This data set has as its system human fibroblasts Hs27. The data set can be described thus: MTT cytotoxicity assay. In kind it is cell-based. The note with it: ratio of CC50/IC50 (Hs27 / T. gondii). How it is done: The MTT [3-(4, 5-dimethylthiazole-2-yl)-2, 5-diphenyltetrazolium bromide] reduction assay ([Mosmann, 1983]) was used to quantify the cytotoxic effects of the examined chalcones and bichalcones on the host cells. To avoid edge effects, only the inner 60 wells of each plate were used. Briefly, 5 × 10^4 Hs27 cells per well were cultured in 96-well microtiter plates in Iscove’s modified Dulbecco’s medium (IMDM, Gibco–Thermo Fisher Scientific, Braunschweig, Germany, #12440053) with a volume of 100 µL per well and incubated overnight at 37°C until confluence. Different concentrations of the compounds (ranging from 200 μM to 0.09 µM) were then added to the Hs27 cells. Controls included untreated Hs27 cells treated with DMSO, and cells treated with staurosporine (0.031, 0.062, 0.125, 0.25, 0.5, 1 µM) (Merck, Darmstadt, Germany, #S4400), a natural product known for its potent activity as apoptosis inducer ([Belmokhtar et al., 2001]). […] Optical density (O.D.) was measured at 570 nm using a microplate reader (TECAN Sunrise, Männedorf, Switzerland). The half-maximal cytotoxic concentration (CC50) values of each compound against Hs27 cells relative to DMSO-treated samples were determined using GraphPad PRISM™ statistical software (version 9.5.1; San Diego, CA). In addition, the selectivity index (SI) of each compound was calculated from the ratio of CC50/IC50.

Turning to `COc1ccc(/C=C/C(=O)c2c(O)cc(OC)cc2OC)cc1` [1ba], the SI is given as >25.

Source of the values: article PMC11298430, “Synthesis and In vitro evaluation of bichalcones as novel anti-toxoplasma agents” (Frontiers in Chemistry, 2024).
